Experimental data taken from PMC9178026.

By UniProt entry, the sequences of proteins in these tests, tags left out.
UniProt Q64010: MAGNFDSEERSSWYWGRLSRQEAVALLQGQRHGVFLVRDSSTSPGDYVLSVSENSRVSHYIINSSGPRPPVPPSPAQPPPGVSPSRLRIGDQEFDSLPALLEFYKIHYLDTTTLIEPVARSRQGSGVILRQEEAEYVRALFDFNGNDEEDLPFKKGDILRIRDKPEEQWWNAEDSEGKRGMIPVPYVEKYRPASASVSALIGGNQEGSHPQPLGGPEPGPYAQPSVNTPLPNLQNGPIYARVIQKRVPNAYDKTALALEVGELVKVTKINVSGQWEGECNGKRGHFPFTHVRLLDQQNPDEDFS

Target: Adapter protein CRK (mouse (endogenous in E18.5 limb muscle and primary MuSC-derived myotubes)) (UniProt Q64010)
Assay: affinity purification with mass spectrometry; CRK immunoprecipitated from E18.5 limb muscle protein extracts of wild type and miR-1/206/133 tKO mice, triplicate sample sets, in gel digest, LC/MS2

binding: binds
B1: RAC1-GEF FARP1 (protein, UniProt F8VPU2 1-1048)
chain: MGEIEQKPTPASRLGAPENSGISTLERGQKPPPTPSGKLMTVKIQMLDDTQEAFEVPQRAPGKVLFDAVCNHLNLVEGDYFGLEFPDHRKIVVWLDLLKPIVKQIRRPKHVVVKFVVKFFPPDHTQLQEELTRYLFALQVKQDLAQGRLTCNDTSAALLISHIVQSEIGDFDEALDREHLAKNKYVPQQDALEDRIMEFHHSHVGQTPAESDFQLLEVARRLEMYGIRLHPAKDREGTKINLAVANTGILVFQGFTKINAFNWAKVRKLSFKRKRFLIKLRPDVNSSYQDTLEFLMAGRDFCKSFWKICVEHHAFFRLFEEPKPKPKPVLFSRGSSFRFSGRTQKQVLDYVKEGGHKKVQFERKHSKIHSTRSLVSQPTAPNSEVPKQSPQSASLTFGEGTESPGGQSCQQAKETKACTLELGPHQSPALPKSPPGSKAADGTTVVPPEEEEEEEGGKDGIRPSNPQPPQPSTGSLTGSPHLSELSINSQGGAAPANVTLSPNLSPDNKQASPLISPLLNDQACPRTDDEEEGRRKRFPTDKAYYIAKEVSTTERTYLKDLEVIASWFQSTVSKEDSMPEALKSLIFPNFEPLHKFHTNFLKEIEQRLALWEGRSNAHVRGDYQRIGDVMLKNIQGMKHLAAHLWKHSEALEALETSIKGSRRLEHFCRDFELQKVCYLPLNTFLLRPLHRLMHYKHVLERLCKHHPPNHADFRDCRAALAEITEMVAQLHGTMIKMENFQKLHELKKDLIGIDNLVTPGREFIRLGSLSKLSGKGLQQRMFFLFNDVLLYTSRGLTASNQFKVHGQLPLYGMTIEESEEEWGVPHCLTLRGQRQSIIVAASSRSEMEKWMEDIQMAIDLAEKSNGPTPELLASSPPDNKSPDEATAADQESEDDLSASRTSLERQAPHRGNTMVHVCWHRSTSVSMVDFSIAVENQLSGNLLRKFKNSNGWQKLWVVFTNFCLFFYKSHQDSHPLASLPLLGYSLTIPSESENIHKDYVFKLHFKSHVYYFRAESEYTFERWMEVIRSATSSASRAHILSHKESHLY

Results are given in words; binding and its absence hold for the method and conditions named. Binding seen in cells or lysates may run through a third protein. A yes stands for co-enrichment or nearness to the bait. Other partners may have been found.
